Laboratory results from PMC10600341.
These are yes or no findings as the source states them, for the method shown. Binding seen in cells or lysates may run through a third protein. Binding can be weak; no strength is given.

Chains of the proteins cited; added tags and fusions are not shown. Lines headed by an entry give the natural chain unless they say otherwise; changes in a name come on top.
UniProt P70278: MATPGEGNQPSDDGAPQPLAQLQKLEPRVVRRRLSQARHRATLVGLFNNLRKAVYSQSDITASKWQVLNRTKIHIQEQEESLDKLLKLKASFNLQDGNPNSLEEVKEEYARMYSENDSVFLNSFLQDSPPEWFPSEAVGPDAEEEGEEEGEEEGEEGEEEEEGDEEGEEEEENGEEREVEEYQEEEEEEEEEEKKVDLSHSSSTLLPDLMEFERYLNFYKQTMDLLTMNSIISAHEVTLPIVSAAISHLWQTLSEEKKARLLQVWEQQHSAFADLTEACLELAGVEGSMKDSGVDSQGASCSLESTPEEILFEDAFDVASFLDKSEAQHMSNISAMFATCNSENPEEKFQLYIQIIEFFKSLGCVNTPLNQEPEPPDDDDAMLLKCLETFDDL

biological target: 3xFLAG-HA tagged mutant STRA8 lacking the LXCXE motif (STRA8 ΔLXCXE) (mouse) (UniProt P70278); assay: co-IP; tandem affinity purification with anti-FLAG M2 beads (elution with 3xFLAG peptide) and then anti-HA beads from chromatin-bound testis extracts of 10 to 12-day old knock-in mice; washes with high salt extraction buffer (400 mM KCl); western blot; non-tagged wild-type testis as negative …

binding	Binder
no binding	p107/RB-Like1 (protein, UniProt Q64701 1-1063) MFEDEPHAEGAAAVAAAREALQALCQELNLDEGSAAEALDDFTAIRGNYSLEGEVIHWLACSLYVACRKSIIPTVGKGVMEGNCVSLTRILRSAKLSLIQFFSKMKKWMDMSNLPQEFRERIERLERNFEVSTVIFKKFEPIFLDIFQNPYEEPPKLPRSRKQRRIPCSVKDLFNFCWTLFVYTKGNFRMIGDDLVNSYHLLLCCLDLIFANAIMCPNRRDLLNPSFKGLPSDFHAPDFKAAEEPPCIIAVLCDLHDGLLVEAKGIKEHYFKPYISKLFDKKILKGECLLDLSSFTDNSKAVNKEYEEYVLTVGDFDERIFLGADAEEEIGTPRKFTADTPFGKLTSQASVECNLQQHFEKKRSFAPSTPLTGRRYLQEKEAVTTPVASATQSVSRLQSIVAGLKSAPSEQLLNIFESCMRNPMGNIIKIVKGIGETFCQHYTQSTDKQPGSHIDFAVNRLKLAEILYYKILETIMVQETRRLHGMDMSVLLEQDIFHKSLMACCLEIVLFAYSSPRTFPWIIEVLDLQPFYFYKVIEVVIRSEEGLSRDMVKHLNSIEEQILESLAWTNNSALWEALHASANRVPSCEEVIFPNNFEIGNGGNVQGHLPMMPMSPIIHPRVKEVRTDSGSLRQDMQPLSPISVHERYSSPAAGSAKRRLFGDDPPKDTLMDKIMAEGTKLKIAPSSVTAESLSISPGQALLTMATTTVTGTTGRKVTVPLHGIANDAGEITLVPISMNPTQESTAESPVSLTAQSLIGTSPKQTHLTKAQDAHLTGVSKPKRTGSLALFYRKVYHLASVRLRDLCLKLDVSNELRRKIWTCFEFTLVHCPDLMKDRHLDQLLLCAFYIMAKVTKEERTFQEIMKSYRNQPQANSHVYRSVLLKSIPGGVVVYNGDCEMTDGDIEDATKTPNCSSEPVKEERGDLIKFYNTVYVGRVKSFALKYDLSNQDHIMDAPPLSPFPHIKQQPGSPRRISQQHSLYVSPHKNGAGLTPRSALLYKFNGSPSKSLKDINNMIRQGEQKTKKRVIAISGDADSPAKRLCQENDDVLLKRLQDVVSERANH
no binding	Retinoblastoma protein RB1 (protein, UniProt P13405 1-921) MPPKAPRRAAAAEPPPPPPPPPREDDPAQDSGPEELPLARLEFEEIEEPEFIALCQKLKVPDHVRERAWLTWEKVSSVDGILEGYIQKKKELWGICIFIAAVDLDEMPFTFTELQKSIETSVYKFFDLLKEIDTSTKVDNAMSRLLKKYNVLCALYSKLERTCELIYLTQPSSALSTEINSMLVLKISWITFLLAKGEVLQMEDDLVISFQLMLCVVDYFIKFSPPALLREPYKTAAIPINGSPRTPRRGQNRSARIAKQLENDTRIIEVLCKEHECNIDEVKNVYFKNFIPFINSLGIVSSNGLPEVESLSKRYEEVYLKNKDLDARLFLDHDKTLQTDPIDSFETERTPRKNNPDEEANVVTPHTPVRTVMNTIQQLMVILNSASDQPSENLISYFNNCTVNPKENILKRVKDVGHIFKEKFANAVGQGCVDIGVQRYKLGVRLYYRVMESMLKSEEERLSIQNFSKLLNDNIFHMSLLACALEVVMATYSRSTLQHLDSGTDLSFPWILNVLNLKAFDFYKVIESFIKVEANLTREMIKHLERCEHRIMESLAWLSDSPLFDLIKQSKDGEGPDNLEPACPLSLPLQGNHTAADMYLSPLRSPKKRTSTTRVNSAANTETQAASAFHTQKPLKSTSLALFYKKVYRLAYLRLNTLCARLLSDHPELEHIIWTLFQHTLQNEYELMRDRHLDQIMMCSMYGICKVKNIDLKFKIIVTAYKDLPHAAQETFKRVLIREEEFDSIIVFYNSVFMQRLKTNILQYASTRPPTLSPIPHIPRSPYKFSSSPLRIPGGNIYISPLKSPYKISEGLPTPTKMTPRSRILVSIGESFGTSEKFQKINQMVCNSDRVLKRSAEGGNPPKPLKKLRFDIEGADEADGSKHLPAESKFQQKLAEMTSTRTRMQKQRMNESKDVSNKEEK
binds	meiosis initiator (MEIOSIN) (protein, UniProt A0A5K7RLP0 1-589) MLGSDKFSCFSDQHRARSPSPTDRKDKKNHTNKLRELALLIPVTMKTRDKKYTKKEILLRVLHYIQYLQRNIDMTKALLKLHSSNGKGRFVGPGLNPSAGQTQQQHSTPSSSQKPSLWSTSSKPRKKKFTRVSEHPSWPYNPRRSLALDQAENPNTIHPGLKEENEECATYPGVLSPSTYPTTEPSVSEGDGQGAQLVFLDMAQNIFAYDILSDHAVEVQGGEPNADIKVQRSFFLTRAQPCVSSCRQKLFLCTSSEADKEAPDSDPWLPVWTSEDSPNGSPLALGSSQINTWHVADYLNEILGVSSSLFSSPSKILPDHVLEDGTYFLTEGLLESSPATCEVESPQEKEVSSEGPTGPPNFQSSVSLDHCYLSLSENVKVLSNCGSSSESTDTESLWGQEEVRGVATYPRRTGVFSLAQPSVLQQANPEGLQTSSDEDRDYTWTPTGQSSGLPVASKKIKKVQASQGPVKPKDSRKACPGQVKKKCVNGFIMFCRMNRKQYIRACPGTASTAATKDLAQLWRGMTLEEKKPYCTKARRFSRQNNRIVKQENSSSEDDDGETPKPFYQLLAEKAQVSLGLTSLPTPNCQ
